Measurements taken from the supplement of paper PMC12823440, “Inhibitors supercharge kinase turnover through native proteolytic circuits” (Nature, 2025).
Where a name gives a salt, the structure may show the parent alone. This is one part of the list. Hit calls seldom repeat between salt and free forms of one compound.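 Kinases were expressed as nanoluciferase fusions in K562 cells and luminescence was read every 4 h between 2 and 18 h as percent of control, DMSO set to 100% and a positive control to 0%. A time point counts as decreased when the signal drops significantly (2 sigma). The hit call is the authors' own, does not follow from the count of time points alone, and its rule is not shown.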

By UniProt entry, the sequences of proteins in these tests, tags left out. Where a name states a change or a piece, a line headed by the entry shows the natural chain unless it says otherwise.
UniProt P49840: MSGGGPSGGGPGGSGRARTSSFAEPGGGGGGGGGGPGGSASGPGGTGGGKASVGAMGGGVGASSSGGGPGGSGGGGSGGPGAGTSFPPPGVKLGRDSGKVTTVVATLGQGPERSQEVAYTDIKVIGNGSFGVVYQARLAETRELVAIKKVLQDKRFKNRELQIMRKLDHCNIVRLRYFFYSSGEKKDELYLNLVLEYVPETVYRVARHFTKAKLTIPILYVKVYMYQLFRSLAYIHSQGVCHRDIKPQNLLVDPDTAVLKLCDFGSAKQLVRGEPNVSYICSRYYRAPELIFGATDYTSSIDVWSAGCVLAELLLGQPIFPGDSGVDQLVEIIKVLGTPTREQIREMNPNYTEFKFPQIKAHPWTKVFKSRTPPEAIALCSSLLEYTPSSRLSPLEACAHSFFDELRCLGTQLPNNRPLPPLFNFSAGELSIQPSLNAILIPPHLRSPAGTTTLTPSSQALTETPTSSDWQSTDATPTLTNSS
UniProt P14616: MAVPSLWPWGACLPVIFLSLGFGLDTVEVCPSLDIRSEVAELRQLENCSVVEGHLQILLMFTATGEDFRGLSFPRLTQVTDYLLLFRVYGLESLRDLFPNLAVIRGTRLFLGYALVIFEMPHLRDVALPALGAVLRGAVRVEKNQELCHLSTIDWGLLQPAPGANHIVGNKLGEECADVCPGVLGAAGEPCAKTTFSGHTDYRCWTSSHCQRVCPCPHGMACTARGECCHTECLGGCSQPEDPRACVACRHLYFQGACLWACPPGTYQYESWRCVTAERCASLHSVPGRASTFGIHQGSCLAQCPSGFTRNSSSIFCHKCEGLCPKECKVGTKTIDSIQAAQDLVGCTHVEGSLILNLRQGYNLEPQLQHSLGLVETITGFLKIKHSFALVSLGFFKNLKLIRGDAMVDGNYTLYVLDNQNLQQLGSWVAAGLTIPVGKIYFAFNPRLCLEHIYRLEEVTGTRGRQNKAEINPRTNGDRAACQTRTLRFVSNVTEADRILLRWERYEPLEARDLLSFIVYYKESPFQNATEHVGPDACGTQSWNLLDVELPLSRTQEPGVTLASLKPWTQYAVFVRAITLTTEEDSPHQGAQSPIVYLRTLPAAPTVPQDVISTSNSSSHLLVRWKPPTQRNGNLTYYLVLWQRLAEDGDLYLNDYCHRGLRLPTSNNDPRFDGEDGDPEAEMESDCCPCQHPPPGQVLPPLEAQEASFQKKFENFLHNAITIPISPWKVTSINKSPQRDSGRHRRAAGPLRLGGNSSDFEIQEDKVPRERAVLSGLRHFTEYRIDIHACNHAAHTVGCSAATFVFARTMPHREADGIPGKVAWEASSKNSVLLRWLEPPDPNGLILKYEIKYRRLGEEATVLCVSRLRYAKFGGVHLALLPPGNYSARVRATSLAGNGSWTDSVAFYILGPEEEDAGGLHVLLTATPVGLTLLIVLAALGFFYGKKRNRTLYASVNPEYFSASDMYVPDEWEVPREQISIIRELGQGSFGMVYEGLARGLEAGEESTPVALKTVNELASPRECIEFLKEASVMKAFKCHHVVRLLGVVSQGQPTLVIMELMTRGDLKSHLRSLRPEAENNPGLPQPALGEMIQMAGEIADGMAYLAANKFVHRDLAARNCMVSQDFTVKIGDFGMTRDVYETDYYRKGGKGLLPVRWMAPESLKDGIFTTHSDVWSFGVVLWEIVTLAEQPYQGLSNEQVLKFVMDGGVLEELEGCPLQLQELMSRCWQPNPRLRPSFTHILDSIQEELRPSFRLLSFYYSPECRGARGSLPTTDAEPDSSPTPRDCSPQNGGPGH
UniProt Q9Y616: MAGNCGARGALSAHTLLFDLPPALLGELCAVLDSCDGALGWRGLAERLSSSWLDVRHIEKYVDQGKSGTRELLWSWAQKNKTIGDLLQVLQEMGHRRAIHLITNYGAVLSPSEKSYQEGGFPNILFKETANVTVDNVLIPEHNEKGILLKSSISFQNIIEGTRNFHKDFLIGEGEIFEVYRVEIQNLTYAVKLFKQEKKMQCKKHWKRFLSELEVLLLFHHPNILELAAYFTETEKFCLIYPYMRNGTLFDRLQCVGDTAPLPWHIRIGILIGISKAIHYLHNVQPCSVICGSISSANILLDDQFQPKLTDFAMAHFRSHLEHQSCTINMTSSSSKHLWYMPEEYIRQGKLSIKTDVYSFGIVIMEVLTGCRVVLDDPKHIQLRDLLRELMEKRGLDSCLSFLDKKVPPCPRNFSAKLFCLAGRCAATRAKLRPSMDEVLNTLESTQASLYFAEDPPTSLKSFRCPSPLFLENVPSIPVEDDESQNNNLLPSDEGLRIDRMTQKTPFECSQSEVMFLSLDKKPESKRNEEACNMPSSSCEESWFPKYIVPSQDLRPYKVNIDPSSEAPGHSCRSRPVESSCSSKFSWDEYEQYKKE
UniProt P06239: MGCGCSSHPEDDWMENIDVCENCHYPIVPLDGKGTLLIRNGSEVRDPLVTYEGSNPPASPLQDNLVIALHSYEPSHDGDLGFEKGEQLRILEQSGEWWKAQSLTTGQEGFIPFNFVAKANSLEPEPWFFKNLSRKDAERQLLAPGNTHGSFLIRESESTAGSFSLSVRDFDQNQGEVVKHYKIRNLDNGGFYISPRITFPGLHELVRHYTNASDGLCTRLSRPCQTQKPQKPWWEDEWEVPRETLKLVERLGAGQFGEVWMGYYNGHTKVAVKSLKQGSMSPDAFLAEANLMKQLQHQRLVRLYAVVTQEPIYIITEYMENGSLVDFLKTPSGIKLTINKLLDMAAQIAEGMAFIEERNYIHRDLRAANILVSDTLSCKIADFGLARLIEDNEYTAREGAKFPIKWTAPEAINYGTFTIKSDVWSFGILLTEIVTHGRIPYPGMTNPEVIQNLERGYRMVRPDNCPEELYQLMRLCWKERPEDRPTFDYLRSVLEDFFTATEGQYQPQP
UniProt P53667: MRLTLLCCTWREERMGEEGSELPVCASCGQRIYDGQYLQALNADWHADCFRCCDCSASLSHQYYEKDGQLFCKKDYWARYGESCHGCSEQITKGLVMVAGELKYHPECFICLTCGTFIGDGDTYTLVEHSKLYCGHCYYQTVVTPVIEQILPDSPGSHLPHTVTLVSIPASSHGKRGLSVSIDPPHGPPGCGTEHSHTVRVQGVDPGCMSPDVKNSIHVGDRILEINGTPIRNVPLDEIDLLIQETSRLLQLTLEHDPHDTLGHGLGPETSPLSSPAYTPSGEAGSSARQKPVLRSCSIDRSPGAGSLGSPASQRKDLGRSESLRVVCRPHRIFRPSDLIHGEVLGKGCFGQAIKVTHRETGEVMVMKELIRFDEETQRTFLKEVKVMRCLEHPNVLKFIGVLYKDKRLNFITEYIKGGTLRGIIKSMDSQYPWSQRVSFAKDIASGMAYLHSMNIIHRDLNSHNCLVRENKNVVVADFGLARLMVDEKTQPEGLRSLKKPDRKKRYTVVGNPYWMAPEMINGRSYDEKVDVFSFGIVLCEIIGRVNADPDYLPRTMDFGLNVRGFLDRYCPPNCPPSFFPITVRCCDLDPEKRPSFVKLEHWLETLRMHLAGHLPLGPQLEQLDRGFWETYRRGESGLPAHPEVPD
UniProt Q12851: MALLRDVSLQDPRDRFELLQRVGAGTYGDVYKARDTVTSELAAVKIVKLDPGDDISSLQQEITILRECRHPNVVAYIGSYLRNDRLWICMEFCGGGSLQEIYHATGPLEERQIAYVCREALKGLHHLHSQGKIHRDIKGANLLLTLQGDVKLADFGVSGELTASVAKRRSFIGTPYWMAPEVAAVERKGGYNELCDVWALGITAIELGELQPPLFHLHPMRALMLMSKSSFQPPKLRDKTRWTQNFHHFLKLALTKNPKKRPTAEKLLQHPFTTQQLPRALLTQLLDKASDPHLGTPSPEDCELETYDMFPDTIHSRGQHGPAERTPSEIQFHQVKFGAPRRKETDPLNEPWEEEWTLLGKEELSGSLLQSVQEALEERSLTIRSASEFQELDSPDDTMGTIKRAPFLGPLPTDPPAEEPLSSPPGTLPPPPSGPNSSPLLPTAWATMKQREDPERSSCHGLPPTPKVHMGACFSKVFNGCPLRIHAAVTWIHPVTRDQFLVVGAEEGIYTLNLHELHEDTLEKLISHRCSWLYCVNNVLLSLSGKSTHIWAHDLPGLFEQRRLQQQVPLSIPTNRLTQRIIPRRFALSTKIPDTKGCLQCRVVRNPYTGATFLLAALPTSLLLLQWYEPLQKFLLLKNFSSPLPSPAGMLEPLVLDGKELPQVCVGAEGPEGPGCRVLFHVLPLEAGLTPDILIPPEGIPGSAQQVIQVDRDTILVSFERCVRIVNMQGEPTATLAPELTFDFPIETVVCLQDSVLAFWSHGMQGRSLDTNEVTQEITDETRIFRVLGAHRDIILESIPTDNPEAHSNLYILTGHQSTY
UniProt P28482, whole entry: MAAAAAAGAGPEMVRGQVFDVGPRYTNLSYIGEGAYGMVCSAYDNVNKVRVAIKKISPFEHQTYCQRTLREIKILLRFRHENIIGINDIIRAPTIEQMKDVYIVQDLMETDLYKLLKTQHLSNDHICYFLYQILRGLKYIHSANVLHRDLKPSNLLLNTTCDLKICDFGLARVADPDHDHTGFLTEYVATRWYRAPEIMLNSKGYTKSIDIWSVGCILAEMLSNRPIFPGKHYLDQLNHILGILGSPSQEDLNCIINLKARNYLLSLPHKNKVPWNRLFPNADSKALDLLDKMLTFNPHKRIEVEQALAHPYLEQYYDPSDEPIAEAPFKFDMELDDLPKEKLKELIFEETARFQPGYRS
UniProt P49137, whole entry, looked up: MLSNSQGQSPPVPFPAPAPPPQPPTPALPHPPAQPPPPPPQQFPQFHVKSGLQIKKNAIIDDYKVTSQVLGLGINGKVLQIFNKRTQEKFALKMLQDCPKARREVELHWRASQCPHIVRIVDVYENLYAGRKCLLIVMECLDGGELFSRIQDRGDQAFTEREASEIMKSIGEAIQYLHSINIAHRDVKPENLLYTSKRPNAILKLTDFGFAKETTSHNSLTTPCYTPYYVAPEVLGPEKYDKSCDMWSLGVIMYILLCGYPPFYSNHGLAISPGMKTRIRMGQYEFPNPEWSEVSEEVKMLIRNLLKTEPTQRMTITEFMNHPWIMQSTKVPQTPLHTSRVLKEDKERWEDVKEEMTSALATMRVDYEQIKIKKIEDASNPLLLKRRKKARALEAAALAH
UniProt Q9BUB5: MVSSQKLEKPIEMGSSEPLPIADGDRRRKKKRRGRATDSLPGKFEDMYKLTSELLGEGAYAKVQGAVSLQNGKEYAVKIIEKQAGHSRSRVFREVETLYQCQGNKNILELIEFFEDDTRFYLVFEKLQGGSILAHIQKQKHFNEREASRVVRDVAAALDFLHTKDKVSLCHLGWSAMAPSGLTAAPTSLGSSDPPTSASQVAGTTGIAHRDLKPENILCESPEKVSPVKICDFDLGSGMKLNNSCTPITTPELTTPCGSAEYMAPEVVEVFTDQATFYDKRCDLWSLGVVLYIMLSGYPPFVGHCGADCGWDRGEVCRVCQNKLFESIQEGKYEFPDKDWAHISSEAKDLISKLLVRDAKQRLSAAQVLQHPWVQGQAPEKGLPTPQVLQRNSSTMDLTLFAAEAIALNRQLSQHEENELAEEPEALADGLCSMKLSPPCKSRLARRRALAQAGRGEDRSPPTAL
UniProt Q16620, whole entry, looked up: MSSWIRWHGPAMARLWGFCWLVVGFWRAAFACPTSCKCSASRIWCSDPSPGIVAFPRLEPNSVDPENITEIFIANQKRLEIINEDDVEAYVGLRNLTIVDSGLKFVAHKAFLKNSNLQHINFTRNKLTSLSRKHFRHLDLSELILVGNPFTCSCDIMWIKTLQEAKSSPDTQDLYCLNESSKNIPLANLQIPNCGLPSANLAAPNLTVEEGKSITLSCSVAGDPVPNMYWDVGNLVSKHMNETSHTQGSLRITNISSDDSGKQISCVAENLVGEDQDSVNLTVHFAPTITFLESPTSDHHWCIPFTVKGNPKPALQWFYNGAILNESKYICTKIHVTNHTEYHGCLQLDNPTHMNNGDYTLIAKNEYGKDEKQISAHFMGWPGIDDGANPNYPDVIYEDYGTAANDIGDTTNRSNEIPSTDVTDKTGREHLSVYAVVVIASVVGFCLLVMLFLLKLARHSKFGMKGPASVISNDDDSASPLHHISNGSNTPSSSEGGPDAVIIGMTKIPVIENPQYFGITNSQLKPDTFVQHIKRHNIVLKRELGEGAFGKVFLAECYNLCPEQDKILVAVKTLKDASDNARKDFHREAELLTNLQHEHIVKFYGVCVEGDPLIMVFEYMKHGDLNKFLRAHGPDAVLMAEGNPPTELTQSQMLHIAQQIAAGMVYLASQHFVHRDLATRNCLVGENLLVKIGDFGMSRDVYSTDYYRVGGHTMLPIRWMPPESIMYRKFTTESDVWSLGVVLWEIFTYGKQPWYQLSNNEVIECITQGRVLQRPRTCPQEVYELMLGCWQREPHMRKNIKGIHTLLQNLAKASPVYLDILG

Assays:
Test in all cases: number of time points (of 5) at which kinase-Nluc abundance scored as decreased, DMSO-normalised (count); higher = more persistent destabilization
Settings in all cases: K562; 2-18 h
[1] = target: FLT3 (UniProt P36888)
[2] = target: FYN (UniProt P06241)
[3] = target: GSK3A (UniProt P49840)
[4] = target: HER2 (UniProt P04626)
[5] = target: INSRR (UniProt P14616)
[6] = target: IRAK3 (UniProt Q9Y616)
[7] = target: JAK1 (UniProt P23458)
[8] = target: LCK (UniProt P06239)
[9] = target: LIMK1 (UniProt P53667)
[10] = target: LIMK2 (UniProt P53671)
[11] = target: LMTK2 (UniProt Q8IWU2)
[12] = target: LYN (UniProt P07948)
[13] = target: MAP2K1 (UniProt Q02750)
[14] = target: MAP2K2 (UniProt P36507)
[15] = target: MAP4K2 (UniProt Q12851)
[16] = target: MAPK1 (UniProt P28482)
[17] = target: MAPK4 (UniProt P31152)
[18] = target: MAPKAPK2 (UniProt P49137)
[19] = target: MKNK1 (UniProt Q9BUB5)
[20] = target: NTRK2 (UniProt Q16620)

Measured: number of time points

CNC(=O)c1cc2c(Oc3ccc(NC(=S)NC(=O)Cc4ccccc4)cc3F)ccnc2cc1OC [TAS-115 mesylate] (10 µM)
2: [11] | [16] | [18]
3: [1] | [5] | [6] | [7] | [19]
0: all other assays above

Cn1cnc([N+](=O)[O-])c1C[N+](C)(C)C/C=C/C(=O)Nc1cc2c(Nc3ccc(Cl)c(Br)c3)ncnc2cn1 [Tarloxotinib (bromide)] (10 µM)
4: [4]
0: all other assays above

CC(C)C[C@@H](C(=O)Nc1ccn(C[C@@H](O)CO)n1)N1CC(Oc2ccccc2Cl)=CC1=O [Dorzagliatin] (10 µM)
0: all assays above

CNC(=O)c1ccccc1Nc1nc(Nc2ccc3c(c2OC)CCC[C@H](N2CCN(CCO)CC2)C3)ncc1Cl (10 µM)
4: [9] | [19]
1: [4] | [11] | [12]
3: [5] | [6] | [10]
2: [2] | [7]
0: all other assays above

Oc1ccc(/C=C/c2cc(O)cc(F)c2)cc1 [Resveratrol analog 1] (10 µM)
0: all assays above

Fetched one by one from the entries so far (2):
Oc1ccc(/C=C/c2cc(O)cc(F)c2)cc1 [Resveratrol analog 1] (10 µM)
0: all assays above

CNC(=O)c1cc2c(Oc3ccc(NC(=S)NC(=O)Cc4ccccc4)cc3F)ccnc2cc1OC [TAS-115 mesylate] (10 µM)
2: [11] | [16] | [18]
3: [1] | [5] | [6] | [7] | [19]
0: all other assays above

The list goes on.

O=C(Nc1nc2ccccc2[nH]1)c1cccc([N+](=O)[O-])c1 [IRAK-4 protein kinase inhibitor 2] (10 µM)
0: all assays above

Cc1ccc2c(Nc3cccc(Cl)c3F)nccc2c1NC(=O)c1csc2c(N)ncnc12 [Belvarafenib] (10 µM)
0: all assays above

CCCNC(=O)Nc1ccc(Oc2ncnc3cc(OC)c(OC)cc23)cc1Cl (2.5 µM)
0: all assays above

O=C(Nc1nc2ccc(NC(=O)C34CC5CC(CC(C5)C3)C4)cc2s1)c1ccccc1 (10 µM)
1: [12] | [19]
0: all other assays above

COCCNc1cc(NC(=O)N2CCCc3cc(CN4CCN(C)CC4=O)c(C=O)nc32)ncc1C#N [Roblitinib] (10 µM)
0: all assays above

O=C1O[C@H]([C@@H](O)CO)C(O)=C1OP(=O)(O)O [2-Phospho-L-ascorbic acid (trisodium)] (10 µM)
0: all assays above

O=C(NC1CCOCC1)c1ccc(-c2cc(-c3c[nH]nc3-c3ccccn3)ccn2)cc1 (10 µM)
0: all assays above

COc1cc2ncnc(-n3nc(-c4ccccn4)nc3N)c2cc1OC (10 µM)
1: [4]
0: all other assays above

Cc1cc(Nc2nc(CC3(C(=O)O)CCN(C(=O)c4cccc(Cl)c4Cl)CC3)ccc2F)n[nH]1 (10 µM)
1: [7]
2: [1]
3: [5]
4: [19]
0: all other assays above

CC(C)(C)n1nc(Cc2ccccc2O)c2c(N)ncnc21 (10 µM)
0: all assays above

Cc1ccc(NC(=O)c2ccnc(C(F)(F)F)c2)cc1-c1cc(OCCO)nc(N2CCOCC2)c1 (10 µM)
0: all assays above

COc1cc(-c2cn[nH]c2)ccc1C(=O)Nc1ccc2c(c1)CCNCC2 (10 µM)
0: all assays above

C[C@@H]1CCNC(=O)c2cc3ccc(C(=O)Nc4nc5ccccc5n4CCCN(C)C)cc3n21 (10 µM)
0: all assays above

Cc1ccn2c(C(=O)C(=O)c3ccccc3)c(-c3ccccc3)nc2c1 (10 µM)
0: all assays above

Cc1ccc(-c2csc3ncnc(SCCC(=O)O)c23)cc1 (10 µM)
0: all assays above

CCn1c(=O)c(-c2cc[nH]n2)cc2c(C)nc(N)nc21 [Voxtalisib] (10 µM)
2: [9]
1: [5]
0: all other assays above

O=C1NC(=Nc2c(Cl)cccc2Cl)S/C1=C\c1ccc2nccnc2c1 (2.5 µM)
1: [11]
4: [2] | [10]
2: [12]
0: all other assays above

Oc1cc(O)c2c(c1)OC1(c3ccc(O)c(O)c3)Oc3cc(O)c4c(c3C2C1O)OC(c1ccc(O)c(O)c1)C(O)C4 (stereo not given) [Procyanidin A1] (10 µM)
0: all assays above

CN(C)c1nc2c(Br)c(Br)c(Br)c(Br)c2[nH]1 (10 µM)
0: all assays above
